This is an account of results in PubChem BioAssay AID485298 (National Center for Advancing Translational Sciences (NCATS), 2010).

Structures are written as SMILES. What follows is the remainder of the data, with few or none of the hits. Calls of active or inactive are those of the source. Calls follow the shape of the dose curve; as a rule, active = well fitted activation curve with a large enough effect; inconclusive = small, poorly fitted or top-dose-only effect; inactive = no such curve, though single readings can be large or run the other way.

The test is described as follows: qHTS Assay for Small Molecule Inhibitors of Mitochondrial Division or Activators of Mitochondrial Fusion.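 Also: temperature-sensitive fusion mutants such as fzo1-1 at 37 °C on non-fermentable ethanol glycerol medium; % of control where 0% means no effect; nearly all actives have a fitted effect of over 45% in size.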 As to conditions: S. cerevisiae fusion-defective mutant growth rescue, CellTiterGlo 48 h; at 46.1 µM (top of the series). The source says: NIH Chemical Genomics Center [NCGC] NIH Molecular Libraries Probe Production centers Network [MLPCN] MLPCN Grant: MH081279-01 Assay Submitter (PI): Jodi M. Nunnari NCGC Assay Overview: The budding yeast S. cerevisiae is a powerful system to study mitochondrial fusion. Unlike other organisms, yeast cells without functional mitochondrial DNA (mtDNA) can be propagated and studied as long as they maintain a mitochondrial compartment and are provided with a fermentable carbon source. When mitochondrial fusion is blocked in yeast, mitochondrial tubules rapidly fragment and division continues unopposed. Under conditions where fusion is compromised in mammalian cells, nearly identical changes in mitochondrial structure have been observed. Thus, these findings indicate that steady state mitochondrial structure in cells is a characteristic and specific indicator of fusion activity. […] We have developed and optimized a luminescence cell viability assay in 1536 well format for the identification of inhibitors in the yeast mitochondrial fusion-defective assay.
The yeast glycerol stocks where kindly supplied by the laboratory of Dr. Jodi Nunnari, University of California, Davis. […] The CellTiterGlo luminescence reagent, containing luciferase and luciferin, were purchased from Promega, and the reagents were stored according to manufacturer's instructions. […] 7.#Read using bio-luminescence protocol on Viewlux.
(Quantitative high-throughput screening tests each substance at several concentrations.)
Regarding `O=C1CC(c2ccccc2)Oc2cc(O)ccc21` (stereo unspecified), the growth rescue (activation) was inactive: -40.7%.
